Experimental data published in PubChem BioAssay (NCATS).
All entries are inconclusive by the source's own rule. Clear calls are listed elsewhere. Unless noted, the call rests on the fitted dose curve; in most records, active means well fitted curve in the direction sought with a large enough effect; inconclusive means small, poorly fitted or top-dose-only effect, or another doubt; inactive means no such curve, though single readings can be large; an effect the other way counts as inactive or inconclusive.

Columns and labels:
[1] = Cell Viability - LYMP2-010 (AID 981); conditions: LYMP2-010 lymphoblastoid cell viability, qHTS;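 further: potency means the concentration at half of the fitted maximal effect; cells exposed to compound for 24 hours at 37 °C; nearly all actives have a fitted effect of over 55% in size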
Method in brief: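 CellTiter-Glo ATP luminescence measured cytotoxicity after 24 h compound exposure at 37 C. LYMP2-010 cells were seeded at 2500/well, with tetraoctylammonium bromide as control; concentration-response curves gave AC50 values by the Hill equation.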

[2] = target: Glucocorticoid receptor (Homo sapiens) (UniProt P04150); assay: qHTS assay for small molecule agonists of glucocorticoid receptor signaling (AID 588532; active means well fitted curve in the direction sought with a large enough effect in the signal ratio, with a control signal flat; inconclusive means small, poorly fitted or top-dose-only effect, or a change in a side signal; inactive means no such curve, though single readings can be large or run the other way; the % refers to the signal ratio; further: potency means the concentration at half of the fitted maximal effect); conditions: HeLa MMTV-bla, beta-lactamase ratio, agonist, 18 h
[3] = target: Retinoic acid receptor RXR-alpha (Homo sapiens) (UniProt P19793); assay: qHTS assay for small molecule agonists of retinoid X receptor alpha signaling (AID 588544; calls by dose curve; further: potency means the concentration at half of the fitted maximal effect); conditions: HEK293T RXRa-UAS-bla, beta-lactamase reporter, 18 h
Excerpt: NIH Chemical Genomics Center [NCGC] U.S. Environmental Protection Agency [EPA] National Institutes of Environmental Health Sciences [NIEHS] National Toxicology Program [NTP] NCGC Assay Overview The Retinoid X receptor (RXR), a nuclear hormone receptor is expressed in liver, spleen, placenta, epidermis, central nervous system. These receptors are able to form homo and heterodimers with other nuclear receptors and due to this heterodimerizing ability, RXR functions as master regulators producing diverse physiological effects. Three subtypes of RXR exist; alpha, beta and gamma. […]
NCGC Assay Protocol Summary Using a beta-lactamase reporter-gene under control of Retinoid X receptor--alpha (RXR-alpha) response element, a cell-based assay [GeneBLAzer (RXR-alpha -UAS-bla assay developed by Invitrogen] was used to measure RXR-alpha ligands signaling. GeneBLAzer RXR-alpha -UAS-bla HEK293T cells were used with assay medium containing 2% charcoal-stripped FBS. The assay was performed in clear bottom black Greiner 1536-well plates. 9-cis-retinoic acid was used in the screen as the positive control. Library compounds were measured for their ability to stimulate the reporter gene activity. […] The fluorescence intensity (405 nm excitation, 460/530 nm emission) was measured using an EnVision plate reader. […] Detection; Fluorescence; Envision plate reader

[4] = qHTS assay for small molecule agonists of the antioxidant response element (ARE) signaling pathway measured by Nrf2-dependant transcriptional activity (AID 720636; active means well fitted curve in the direction sought with a large enough effect in the repeat runs; inconclusive means weak or mixed curves; inactive means no such curve, though single readings can be large; an effect the other way counts as inactive or inconclusive; further: potency means the concentration at half of the fitted maximal effect); conditions: ARE-luc HepG2, Nrf2 luciferase reporter, 16 h
Method in brief: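 Quantitative HTS format in HepG2 cells stably expressing an ARE-luciferase reporter; 16 hr compound treatment at 37 C, luciferase signal detected with ONE-Glo.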

[5] = target: Retinoic acid receptor RXR-alpha (Homo sapiens) (UniProt P19793); assay: qHTS assay for small molecule antagonists of retinoid X receptor alpha signaling (AID 588546; active means well fitted inhibition curve with a large enough effect in the signal ratio, with a control signal flat, not every such curve was filed as active; inconclusive means small, poorly fitted or top-dose-only effect, or effect the other way, or a change in a side signal; inactive means no such curve, though single readings can be large or run the other way; the % refers to the signal ratio;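 further: cells stimulated with 9-cis-retinoic acid as agonist; on the % scale 0 is the no-effect control and ±100 the full control effect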); conditions: HEK293T RXRa-UAS-bla, beta-lactamase ratio, antagonist mode
Method in brief: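 Beta-lactamase reporter inhibition, read as CCF4 fluorescence ratio (ex 405, em 460/530 nm) after 2 h at RT. HEK293T UAS-bla cells, 2500/well, were stimulated with 9-cis-RA at 500 or 100 nM final alongside test compound for 18 h at 37 C.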

[6] = qHTS assay to identify small molecules that stimulate interleukin-8 (IL-8) secretion (AID 651758; active means well fitted activation curve with a large enough effect in the signal ratio; inconclusive means small, poorly fitted or top-dose-only effect, or effect the other way, or a change in a side signal; the % refers to the signal ratio; further: 0% is about no effect); conditions: HTRF ratio (665/615); at 92.2 µM (top of the series)
Method in brief: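 Quantitative HTS in THP-1 monocytic cells at 2000 cells per well, with 16 hrs compound incubation at 37 C. IL-8 in the medium was then quantified by HTRF immunoassay, read after 1-3 hrs at room temperature.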

[7] = qHTS assay for small molecule agonists of the antioxidant response element (ARE) signaling pathway (AID 651741; active means well fitted activation curve with a large enough effect in the signal ratio; inconclusive means small, poorly fitted or top-dose-only effect, or effect the other way, or a change in a side signal; the % refers to the signal ratio; further: potency means the concentration at half of the fitted maximal effect); conditions: HepG2 ARE-bla reporter, beta-lactamase FRET ratio, 16 h
Method in brief: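 Reporter: beta-lactamase under ARE, stably in HepG2. Exposure: 16 h, 37 C, compounds delivered in DMSO by pin tool after 5 h cell preincubation. Readout: FRET substrate fluorescence after 2 h at RT.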

[8] = qHTS Screen of the MIPE 4.0 Collection Against Ewings Sarcoma (EW8) (AID 1259255); conditions: EW8 Ewing sarcoma viability, CellTiter-Glo, 48 h; further: potency means the concentration at half of the fitted maximal effect; nearly all actives have a fitted effect of over 35% in size
Method in brief: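 Here, cells in 5% FBS RPMI were exposed for two days (48 h) to compound dilutions added four hours after plating. ATP-based CellTiter-Glo luminescence measured viability, normalized to vehicle and no-cell blanks.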

[9] = Primary qHTS for small molecule stabilizers of the endoplasmic reticulum resident proteome: Secreted ER Calcium Modulated Protein (SERCaMP) assay (AID 1508630); conditions: SH-SY5Y GLuc-SERCaMP secretion, thapsigargin, luminescence; further: potency means the concentration at half of the fitted maximal effect
Method in brief: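 The SH-SY5Y reporter protocol was run at 3 concentrations up to 38.3 uM (primary) or 11 concentrations (follow-up): 16 h compound, 100 nM thapsigargin for 4 h, then extracellular luciferase luminescence.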

[10] = Quantitative High-Throughput drug screen in 47 multiple myeloma cell lines against the NCATS MIPE library collection: Delta47_JCRB cell viability assay (AID 1918925; further: potency means the concentration at half of the fitted maximal effect; nearly all actives have a fitted effect of over 45% in size); conditions: Delta47 myeloma viability, CellTiter-Glo ATP, 48 h
Method in brief: (§1)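 qHTS of the MIPE 4.0 collection: 500 myeloma cells/well, 48 h drug exposure at 37C in 5% CO2, then CellTiter-Glo for 5 min at room temperature before luminescence reading.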

[11] = Quantitative High-Throughput drug screen in 47 multiple myeloma cell lines against the NCATS MIPE library collection: KMM1_JCRB cell viability assay (AID 1918960); conditions: KMM1 myeloma viability, CellTiter-Glo ATP luminescence, 48 h; further: potency means the concentration at half of the fitted maximal effect; nearly all actives have a fitted effect of over 30% in size
Method in brief: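 Cell viability inhibition in this qHTS is measured via ATP content (CellTiter-Glo) after 48 h drug exposure at 37 °C. Wells hold 500 cells; DMSO-treated wells define 100% and medium-only wells 0%.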

[12] = Quantitative High-Throughput drug screen in 47 multiple myeloma cell lines against the NCATS MIPE library collection: KHM11_PLB cell viability assay (AID 1918962); conditions: KHM11 myeloma cell viability, CellTiter-Glo ATP luminescence, 48 h; further: potency means the concentration at half of the fitted maximal effect; nearly all actives have a fitted effect of over 35% in size
Method in brief: as §1

[13] = Quantitative High-Throughput drug screen in 47 multiple myeloma cell lines against the NCATS MIPE library collection: H1112_PLB cell viability assay (AID 1918967; further: potency means the concentration at half of the fitted maximal effect; nearly all actives have a fitted effect of over 30% in size); conditions: H1112 myeloma cells viability, ATP luminescence, 48 h
Method in brief: as §1

[14] = Quantitative High-Throughput drug screen in 47 multiple myeloma cell lines against the NCATS MIPE library collection: KMS27_JCRB cell viability assay (AID 1918970); conditions: KMS27 myeloma cells, CellTiter-Glo ATP viability, 48 h; further: potency means the concentration at half of the fitted maximal effect; nearly all actives have a fitted effect of over 30% in size
Method in brief: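 CellTiter-Glo luminescence after 48 h drug exposure at 37 °C; 500 cells/well, 1536-well format, pin-tool compound addition; DMSO = 100%, media-only = 0% viability.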

[15] = Quantitative High-Throughput drug screen in 47 multiple myeloma cell lines against the NCATS MIPE library collection: KMS12BM_JCRB cell viability assay (AID 1918971); conditions: KMS12BM myeloma viability, CellTiter-Glo ATP, 48 h; further: potency means the concentration at half of the fitted maximal effect; nearly all actives have a fitted effect of over 35% in size
Method in brief: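 Relative luminescence from CellTiter-Glo served as the viability signal, referenced to DMSO-treated (100%) and cell-free medium (0%) controls. Treatment lasted 48 hours at 37C with 500 cells per well.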

[16] = Quantitative High-Throughput drug screen in 47 multiple myeloma cell lines against the NCATS MIPE library collection: KMS21BM_JCRB cell viability assay (AID 1918974); conditions: ATP luminescence, 48 h; further: potency means the concentration at half of the fitted maximal effect
Method in brief: as §1

[17] = Quantitative High-Throughput drug screen in 47 multiple myeloma cell lines against the NCATS MIPE library collection: KMS28PE_JCRB cell viability assay (AID 1918983); conditions: KMS28PE multiple myeloma viability, CellTiter-Glo ATP, 48 h; further: potency means the concentration at half of the fitted maximal effect; nearly all actives have a fitted effect of over 35% in size
Method in brief: (§2)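 qHTS format: cells plated (500/well), pin-dosed with MIPE 4.0 compounds, kept 48 h at 37 °C. Readout was CellTiter-Glo luminescence, median RLU.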

[18] = Quantitative High-Throughput drug screen in 47 multiple myeloma cell lines against the NCATS MIPE library collection: L363_DSMZ cell viability assay (AID 1918984); conditions: L363 myeloma viability, CellTiter-Glo ATP luminescence, 48 h; further: potency means the concentration at half of the fitted maximal effect; nearly all actives have a fitted effect of over 40% in size
Method in brief: as §2

[19] = Quantitative High-Throughput drug screen in 47 multiple myeloma cell lines against the NCATS MIPE library collection: VP6_DJ cell viability assay (AID 1919867); conditions: ATP luminescence, 48 h; further: potency means the concentration at half of the fitted maximal effect; nearly all actives have a fitted effect of over 40% in size
Method in brief: as §2

[20] = Quantitative High-Throughput drug screen in 47 multiple myeloma cell lines against the NCATS MIPE library collection: UTMC2_PLB cell viability assay (AID 1919868); conditions: CellTiter-Glo ATP luminescence, 48 h; further: potency means the concentration at half of the fitted maximal effect; nearly all actives have a fitted effect of over 55% in size
Method in brief: as §2

[21] = Quantitative High-Throughput drug screen in 47 multiple myeloma cell lines against the NCATS MIPE library collection: PE2_PLB cell viability assay (AID 1919869); conditions: PE2_PLB myeloma cells viability, ATP luminescence, 48 h
Method in brief: as §2

[22] = Quantitative High-Throughput drug screen in 47 multiple myeloma cell lines against the NCATS MIPE library collection: KMS11_JCRBsus cell viability assay (AID 1919873); conditions: KMS11 myeloma viability, CellTiter-Glo ATP luminescence, 48 h; further: potency means the concentration at half of the fitted maximal effect; nearly all actives have a fitted effect of over 50% in size
Method in brief: as §2

ClP(Cl)(Cl)(Cl)Cl
inconclusive: Potency [1] 50.1 µM

O=[N+]([O-])c1ccccc1[N+](=O)[O-]
inconclusive: Potency [2] 17.8 µM | Potency [3] 25.1 µM | Potency [4] 30.6 µM

CCOP(=O)(Cl)Cl
inconclusive: max response [5] -11.3% | activation [6] -3.31%

ClCCOP(OCCCl)OCCCl
inconclusive: Potency [7] 75 µM

CCOC(=O)C(=O)CBr
inconclusive: Potency [8] 0.001 µM | Potency [9] 7.49 µM | Potency [10] 0.372 µM | Potency [11] 0.003 µM | Potency [12] 13.2 µM | Potency [13] 2.64 µM | Potency [14] 0.001 µM | Potency [15] 10.5 µM | Potency [16] 33.2 µM | Potency [17] 18.7 µM | Potency [18] 0.118 µM | Potency [19] 0.001 µM | Potency [20] 0.001 µM | Potency [21] 2.35 µM | Potency [22] 18.7 µM
